For 62 compounds, cell number change and AC50 results are on record in PubChem BioAssay AID2685 (National Center for Advancing Translational Sciences (NCATS), 2010).

This is one part of the list. Further columns of the screen follow, without active or inactive calls. The list favours compounds with an active or inconclusive main result. Words in brackets tell the shape of the fitted curve; partial curves, single points and poor fits give uncertain potencies.

A short description of the assay: qHTS Assay for Lipid Storage Modulators in Drosophila S3 Cells.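 On cell number change: cells counted by Cell Tracker Red CMTPX staining in the red channel.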 Particulars: BODIPY lipid droplet fluorescence, 18-24 h; for cell number change: measured here: cell count max response, cells fed with added oleic acid. The essentials: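 Laser-scanning cytometry quantifies lipid droplet accumulation (500–530 nm total intensity; droplet/cell object ratio) in oleic acid-fed (400 uM added) Drosophila S3 cells treated with a concentration series. 20 uM Triacsin C defined 100% inhibition.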

The mark [1] stands for this setting: measured here: cell number channel AC50, cells fed with added oleic acid.
The mark [2] stands for this setting: measured here: lipid fluorescence (Fed channel) AC50, cells fed with added oleic acid.

The AC50 is the concentration at which the activity in the assay is half-maximal. For `O=C(c1ccco1)n1nc(-c2ccccc2)nc1SCc1ccccc1`, the cell number change was -26.2%. For the same compound, under setting [1], the half-maximal activity concentration (AC50) was 0.058 µM [falling, full curve, poor fit]. In addition, the AC50 under setting [2] is 25.9 µM [falling, partial curve]. Take `Cc1nc2ncnn2c(N2CCC(C(=O)NC3CCCC3)CC2)c1Cc1ccccc1`: the half-maximal activity concentration (AC50) under setting [1] is 0.461 µM [rising, partial curve, poor fit]. Consider `Cc1ccc(F)c(Oc2cc(NN3CCCCC3)c([N+](=O)[O-])cc2[N+](=O)[O-])c1`, for which the cell number change is -38.5%. Under setting [1], the AC50 was 20.6 µM [falling, single point]. For `S=C(Cc1ccc(Cl)cc1)N1CCOCC1`, the cell number change is -51.5%. Moreover, the AC50 under setting [1] was 2.06 µM [falling, full curve]. Further, the concentration at half-maximal activity (AC50) under setting [2] was 20.6 µM [falling, single point].

Consider `Cc1ccc(NC(=O)COC(=O)CCc2ccccc2)c(Cl)c1`, for which the cell number change came out at 30.3%. In the case of `COCC(CN1CCN(C2=NS(=O)(=O)c3ccccc32)CC1)OC(=O)c1ccccc1` (stereo not given), the cell number change is -8.33%. As for `C=CCn1c2ccccc2c2nnc(SCC(=O)NC(C(=O)OC)C(C)C)nc21` (stereo not given), the AC50 was 0.146 µM [rising, full curve] under setting [1] and 0.146 µM [rising, full curve] under setting [2]. `COc1ccc(-n2c(C)cc(C(=O)Cn3nc(C(=O)O)c4ccccc4c3=O)c2C)cc1`: the cell number change is -9.35%. `CCOc1cc(S(=O)(=O)N2CCN(S(=O)(=O)CC)CC2)c(OCC)cc1-n1cnnn1`: the cell number change was found to be 1.22%. For the same compound, the half-maximal activity concentration (AC50) under setting [2] was 9.2 µM [rising, single point]. As to `CC(NC(=O)C1CC2CCCC(C1)C2=O)c1ccccc1` (stereo not given), the cell number change was -11.7%. In addition, the AC50 under setting [2] was 0.13 µM [falling, full curve, poor fit].

Take `COc1ccc(C2=Nc3cccc4cccc(c34)N2)cc1`: the cell number change turned out to be 20.9%. Further, the AC50 under setting [1] was 1.46 µM [rising, full curve, poor fit]. Consider `COc1ccc(CN2CCN(Cc3ccccc3F)CC2)cc1OC`, for which the cell number change came out at 15.5%. The same measure, in the same setting: for `Cc1cc(C)c2nc(-c3cccnc3)cc(C(=O)Nc3ccc(S(=O)(=O)Nc4onc(C)c4C)cc3)c2c1` the value was -32.5%.

In the case of `O=C(OCc1nnc(-c2ccccc2)o1)C12CC3CC(CC(Br)(C3)C1)C2`, the cell number change came out at 18.9%. As to `Cc1cc(NC(=O)c2ccoc2C)ccc1Br`, the cell number change was -66.5%. Further, the concentration at half-maximal activity (AC50) under setting [1] was 14.6 µM [falling, partial curve]. Turning to `COc1ccc(C(=O)NC2CCN(CC(=O)NC3CCCCC3)CC2)cc1`, the cell number change was -1.59%. Further, the AC50 under setting [2] is 29.1 µM [rising, single point]. In the case of `COc1ccc(OC)c(NC(=O)C(CC(C)C)NC(=O)C2CCCCC2)c1` (stereo not given), the cell number change is -1.4%. Also, the concentration at half-maximal activity (AC50) under setting [2] was 0.92 µM [falling, full curve]. With `COc1ccc(-n2nnnc2SCC(=O)c2cc3ccccc3o2)cc1`, the cell number change was -0.698%. Besides, under setting [2], the half-maximal activity concentration (AC50) was 0.184 µM [rising, full curve, poor fit]. For the compound `CCOC(=O)c1cnc(SC2CC(=O)N(c3ccc(C)cc3)C2=O)nc1N` (stereo not given), the cell number change was -47.8%. Moreover, the half-maximal activity concentration (AC50) under setting [1] was 25.9 µM [falling, single point]. Turning to `COc1ccccc1NC(=O)CSc1n[nH]c(Cc2ccccc2)n1`, the cell number change was 29.7%. In addition, the AC50 under setting [2] was 29.1 µM [rising, single point]. `Cc1cc2c(ncn2C)c(NS(=O)(=O)c2ccc(Cl)cc2)c1C`: the AC50 under setting [1] was 0.731 µM [falling, partial curve].

For the compound `CCC(=O)Nc1ccc(Cl)c(NC(=O)c2ccccc2OC)c1`, the cell number change was 15.8%. In addition, the AC50 under setting [2] was 4.11 µM [rising, single point]. For the compound `CCC1(c2ccccc2)NC(=O)N(CC(=O)N(CC(=O)Nc2ccccc2C(F)(F)F)Cc2ccco2)C1=O` (stereo not given), the AC50 under setting [1] was 0.58 µM [falling, single point]. Take `COc1ccc(C(=O)NCC(=O)OCC(=O)Nc2ccc(C)c(S(=O)(=O)N(C)C)c2)cc1OC`: the cell number change is -5.09%. For the same compound, under setting [2], the half-maximal activity concentration (AC50) was 2.59 µM [falling, single point]. `Cc1cc(SCC(=O)c2ccc3c(c2)OCO3)nc2ccccc12`: the AC50 under setting [1] was 0.231 µM [rising, partial curve, poor fit]. On to `C=CCNC(=O)c1n[nH]c2c1CC(C(C)(C)CC)CC2` (stereo not given), for which the cell number change is -2.05%. For the same compound, the AC50 under setting [1] is 2.91 µM [falling, single point]. For `O=C(CCN1C(=O)/C(=C\c2ccccc2Cl)SC1=S)Nc1cccnc1`, the cell number change was -7.11%. Moreover, the AC50 under setting [2] is 4.11 µM [falling, full curve, poor fit].

Turning to `COc1cc(C(=O)Nc2ccc(C(C)=O)cc2)c(Br)c(OC)c1OC`, the cell number change turned out to be 13.3%. In addition, the half-maximal activity concentration (AC50) under setting [2] is 8.2 µM [rising, partial curve, poor fit]. As to `O=C(NNC(=O)c1ccccc1O)c1cccc(Br)c1`, the cell number change came out at 24.9%. Also, the AC50 under setting [2] is 29.1 µM [rising, single point]. Consider `Cc1ccc(S(=O)(=O)N2CCCC2CNC(=O)C(=O)NC2CCCC2)cc1` (stereo not given), for which the cell number change was -7.41%. Moreover, under setting [2], the AC50 is 16.4 µM [falling, partial curve, poor fit]. For the compound `O=C(C1=NN(c2ccccc2)C(=O)CC1)N1CCc2ccccc2C1`, the cell number change stood at 21.4%. Besides, under setting [2], the half-maximal activity concentration (AC50) was 23.1 µM [rising, single point]. With `COc1ccc(C(=O)NCCS(=O)(=O)NCc2ccco2)cc1`, the AC50 under setting [1] was 0.731 µM [falling, single point]. As for `Cc1cc(C(=O)Nc2ccc(S(=O)(=O)Nc3nccs3)cc2)c(C)o1`, the cell number change amounted to 4.8%. The concentration at half-maximal activity (AC50) under setting [2] was 20.6 µM [falling, partial curve, poor fit]. Take `CCOc1ccc(CCNC(=O)/C=C/c2ccco2)cc1OCC`: the cell number change is -21.2%. In addition, under setting [1], the concentration at half-maximal activity (AC50) is 3.66 µM [falling, full curve, poor fit].

Turning to `Cc1cccc2sc(NC(=O)c3ccc(OCC4CCCO4)cc3)nc12` (stereo not given), the cell number change amounted to 42.6%. Further, the AC50 under setting [1] was 11.6 µM [rising, partial curve, poor fit]. On to `Cn1cc(CN2CCC(n3nccc3NC(=O)CCc3ccccc3)CC2)cn1`, for which the cell number change came out at 4.62%. Same read-out and setting: for `CN=C(C)c1c(O)c2ccccc2oc1=O` the value was 21.5%. As for `CCN1C(=O)/C(=C/C=C2\C=CN(CC)c3ccccc32)SC1=S`, the cell number change is -18.2%. Under setting [1], the half-maximal activity concentration (AC50) was 2.06 µM [falling, partial curve, poor fit]. Besides, the AC50 under setting [2] is 8.2 µM [falling, partial curve, poor fit]. For the compound `O=C(NCCC1CCCCN1S(=O)(=O)c1ccccc1)C(=O)NCc1ccco1` (stereo not given), the concentration at half-maximal activity (AC50) is 4.11 µM [rising, partial curve, poor fit] under setting [1] and 6.51 µM [rising, single point] under setting [2].

For the compound `Cc1cn(S(=O)(=O)c2ccc(Br)cc2)cn1`, the cell number change turned out to be 28.9%. Also, the AC50 under setting [1] was 4.61 µM [rising, full curve, poor fit]. Under setting [2], the AC50 was 6.51 µM [rising, full curve, poor fit]. Regarding `OCc1ncccc1O`, the cell number change was -26.2%. Further, under setting [2], the AC50 is 11.6 µM [falling, single point]. As to `COc1cccc(OCCCCN2CCCCC2)c1`, the cell number change is -0.922%. For the same compound, the AC50 under setting [1] is 0.58 µM [falling, single point].

Turning to `Fc1ccc(OCCCCCCN2CCCC2)cc1`, the cell number change is -3.23%. Besides, the half-maximal activity concentration (AC50) under setting [2] is 0.731 µM [rising, single point]. `CC(C)CCN1C(=O)c2ccc(C(=O)Nc3ccccn3)cc2C1=O`: the cell number change was -20.9%. Moreover, under setting [2], the AC50 is 0.461 µM [falling, full curve]. Turning to `COc1ccccc1/C=C(/NC(=O)c1ccc(Cl)cc1Cl)C(=O)O`, under setting [2], the AC50 is 0.58 µM [rising, single point]. With `COc1ccc(/C=C2/N=C(c3cccs3)OC2=O)cc1OC(C)C`, the cell number change is -35.5%. The concentration at half-maximal activity (AC50) under setting [1] was 32.6 µM [falling, single point]. For the same compound, the AC50 under setting [2] was 25.9 µM [falling, single point].

Consider `Cc1cccc(N2CCN(C(=O)CCn3c(=O)[nH]c4ccsc4c3=O)CC2C)c1` (stereo not given), for which the cell number change is -23.8%. For the same compound, under setting [2], the half-maximal activity concentration (AC50) was 0.092 µM [rising, full curve, poor fit]. Take `COc1cc(C(=O)NCC(c2ccccc2)N(C)C)ccc1OCC(=O)N1CCOCC1` (stereo not given): the cell number change is -20.6%. The half-maximal activity concentration (AC50) under setting [1] is 0.00461 µM [falling, full curve, poor fit]. Besides, the AC50 under setting [2] is 5.17 µM [falling, full curve].

For the compound `NC(=O)Nc1ccc2c(c1)OCCO2`, the cell number change was -38.7%. For the same compound, the half-maximal activity concentration (AC50) under setting [1] was 3.26 µM [falling, full curve].

As for `COc1ccc(C2N(C(=O)c3ccccc3)CCN2C(=O)c2ccc(C)cc2)cc1` (stereo not given), the cell number change was -7.23%. `CCOc1ccc(C(c2c(O)nc(SC)n(C)c2=O)c2c(O)nc(SC)n(C)c2=O)cc1`: the cell number change stood at 2.79%.

`Cc1ccc(NC(=O)Cn2cccc2C2=NC(c3ccccc3)CO2)c(C)c1` (stereo not given): the cell number change was 47.3%. For the same compound, under setting [1], the AC50 is 2.59 µM [rising, partial curve]. Further, the concentration at half-maximal activity (AC50) under setting [2] is 7.31 µM [rising, partial curve]. As to `O=C(NCCC1=CCCCC1)C1COc2ccccc2O1` (stereo not given), the cell number change is -9.21%. Moreover, the half-maximal activity concentration (AC50) under setting [2] was 0.651 µM [falling, single point]. `Cn1c(=O)c2c(nc(CN3CCc4ccccc4C3)n2Cc2ccccc2)n(C)c1=O`: the cell number change was -29.9%. Further, the AC50 under setting [2] was 29.1 µM [falling, single point]. As for `Brc1cc2c(cc1CN1CCc3ccccc3C1)OCO2`, the cell number change was 18.1%. `N#CC(C#N)=C1C=C2C=C(N3CCCCC3)CCC2CC1` (stereo not given): the cell number change is -99.6%. In addition, under setting [1], the AC50 was 0.58 µM [falling, full curve]. For the same compound, under setting [2], the AC50 was 0.231 µM [falling, full curve]. `CC1(C)CC2(C)OCCN2C(=S)N1` (stereo not given): the cell number change was -13.3%. Besides, under setting [2], the concentration at half-maximal activity (AC50) is 32.6 µM [falling, single point]. Regarding `O=C1C(=O)N(c2ccccn2)C(c2ccc(Br)cc2)/C1=C(/O)c1ccc(Br)cc1` (stereo not given), the cell number change was -5.56%. Also, the concentration at half-maximal activity (AC50) under setting [2] was 29.1 µM [rising, single point]. Take `CSCC[C@H](NC(=O)OC(C)(C)C)c1nnc(SCc2ccccc2)o1`: the cell number change was -30.2%. In addition, the concentration at half-maximal activity (AC50) under setting [1] is 18.4 µM [falling, partial curve]. As to `COc1ccc(CCNC(=O)C2CCC(=O)N(C3CCCCCC3)C2)cc1` (stereo not given), the cell number change was determined as 34%. Further, under setting [1], the AC50 was 23.1 µM [rising, single point].

As to `OCC1(CO)COC(CCc2ccccc2)=N1`, the cell number change came to 26.7%. The AC50 under setting [2] is 29.1 µM [rising, single point]. Consider `CC(C(=O)Nc1ccccn1)N1C(=O)C2C3C=CC(C3)C2C1=O` (stereo not given), for which the cell number change is 1.15%. Moreover, the concentration at half-maximal activity (AC50) under setting [2] is 0.58 µM [falling, full curve, poor fit].
